# Values from PubChem BioAssay AID1259266 (Sanger Institute, 2017)
# Test: 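Essential genes and drug synergy among kinases and colorectal-mutated genes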 (primary screen)
# System: LS123 human colorectal cancer cells
# Reagents: siRNA pool against human genes
# Challenge: anchor drugs BYL719 (1 µM), cetuximab (5 µg/ml) or trametinib (10 nM), each chosen to barely slow growth alone; DMSO vehicle as the drug-free arm
# Read-out: 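Replicate-averaged viability scaled to non-targeting pools, robust z-score for siRNA alone, and a synergy score per anchor drug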
# Scale: robust z-score, knock-down alone: higher = more cells surviving after knock-down; viability, knock-down alone: higher = more viable cells
# Hit rule: 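a knock-down counts as essential if its z-score without drug is under -3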
# Calls: active = essential (knock-down alone cuts viability); inactive = no change
# The whole screen tested 794 reagents; shown is a random part of them. 16 of all reagents (2%) count as active. 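Calls reflect knock-down alone, not drug synergy; viability seems capped at 1 and z-scores at 0.585.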 Further read-outs or replicates are left out here. No sequences are given here. Not stated in the record: the amount of reagent, the time to read-out.
target gene,"robust z-score, knock-down alone","viability, knock-down alone (fraction of control)",activity call
SBK1 (SH3 domain binding kinase 1),0.528,0.997,inactive
CDK10 (cyclin dependent kinase 10),0.585,1,inactive
PRKAR1B (protein kinase cAMP-dependent type I regulatory subunit beta),-0.827,0.916,inactive
"PIM1 (Pim-1 proto-oncogene, serine/threonine kinase)",0.585,1,inactive
DAPK2 (death associated protein kinase 2),0.585,1,inactive
AMHR2 (anti-Mullerian hormone receptor type 2),0.31,0.984,inactive
SIK2 (salt inducible kinase 2),0.585,1,inactive
LRRK2 (leucine rich repeat kinase 2),0.585,1,inactive
WIPF1 (WAS/WASL interacting protein family member 1),-2.4,0.823,inactive
"RELA (RELA proto-oncogene, NF-kB subunit)",0.0824,0.97,inactive
SMG1,0.399,0.989,inactive
TWF2 (twinfilin actin binding protein 2),0.484,0.994,inactive
CDKN1A (cyclin dependent kinase inhibitor 1A),0.585,1,inactive
ADPGK (ADP dependent glucokinase),-0.642,0.927,inactive
GNAS (GNAS complex locus),-0.5,0.936,inactive
COQ8B (coenzyme Q8B),0.585,1,inactive
HIPK3 (homeodomain interacting protein kinase 3),0.585,1,inactive
"LYN (LYN proto-oncogene, Src family tyrosine kinase)",0.585,1,inactive
STK38 (serine/threonine kinase 38),-0.768,0.92,inactive
BMAL1 (basic helix-loop-helix ARNT like 1),-2.38,0.824,inactive
DAPK3 (death associated protein kinase 3),-0.188,0.954,inactive
CDK9 (cyclin dependent kinase 9),0.585,1,inactive
PIP5K1C (phosphatidylinositol-4-phosphate 5-kinase type 1 gamma),0.585,1,inactive
PI4KB (phosphatidylinositol 4-kinase beta),0.585,1,inactive
PCK1 (phosphoenolpyruvate carboxykinase 1),-0.464,0.938,inactive
MAP2K1 (mitogen-activated protein kinase kinase 1),0.585,1,inactive
PIK3C2G,0.268,0.981,inactive
NEK5 (NIMA related kinase 5),0.585,1,inactive
LIMK2 (LIM domain kinase 2),0.585,1,inactive
HK3 (hexokinase 3),0.585,1,inactive
NME5 (NME/NM23 family member 5),0.585,1,inactive
NEK8 (NIMA related kinase 8),-2.58,0.812,inactive
GATA3 (GATA binding protein 3),-0.0819,0.96,inactive
MAPK7 (mitogen-activated protein kinase 7),0.585,1,inactive
ERBB3 (erb-b2 receptor tyrosine kinase 3),-1.17,0.896,inactive
ELP1 (elongator acetyltransferase complex subunit 1),0.585,1,inactive
IKBKG,0.118,0.972,inactive
PCBP1 (poly(rC) binding protein 1),0.356,0.986,inactive
ALPK1 (alpha kinase 1),0.585,1,inactive
PIK3R2 (phosphoinositide-3-kinase regulatory subunit 2),0.585,1,inactive
TWF1 (twinfilin actin binding protein 1),0.585,1,inactive
TP53 (tumor protein p53),-0.559,0.932,inactive
DCLK1 (doublecortin like kinase 1),0.552,0.998,inactive
"CKM (creatine kinase, M-type)",0.585,1,inactive
PGK2 (phosphoglycerate kinase 2),0.585,1,inactive
HUNK (hormonally up-regulated Neu-associated kinase),-0.807,0.917,inactive
MELK (maternal embryonic leucine zipper kinase),0.585,1,inactive
ALPK2 (alpha kinase 2),0.585,1,inactive
CSNK2B (casein kinase 2 beta),-0.365,0.944,inactive
MED12 (mediator complex subunit 12),-0.882,0.913,inactive
MAP3K8 (mitogen-activated protein kinase kinase kinase 8),0.585,1,inactive
PTK7 (protein tyrosine kinase 7 (inactive)),-2.2,0.835,inactive
AURKC (aurora kinase C),-4.37,0.706,active
SPEG (striated muscle enriched protein kinase),-0.365,0.944,inactive
"ROS1 (ROS proto-oncogene 1, receptor tyrosine kinase)",-1.4,0.882,inactive
TAF1L (TATA-box binding protein associated factor 1 like),0.585,1,inactive
NUP62 (nucleoporin 62),-0.126,0.958,inactive
ALPK3 (alpha kinase 3),0.585,1,inactive
ACVR1 (activin A receptor type 1),0.585,1,inactive
MAP3K4 (mitogen-activated protein kinase kinase kinase 4),0.585,1,inactive
CAMK2D (calcium/calmodulin dependent protein kinase II delta),0.585,1,inactive
NIM1K (NIM1 serine/threonine protein kinase),0.585,1,inactive
PRPS1L1 (phosphoribosyl pyrophosphate synthetase 1 like 1),0.585,1,inactive
